Experimental data published in PubChem BioAssay AID540276 (National Center for Advancing Translational Sciences (NCATS), 2011).
The campaign covered roughly 300,000 compounds. About 5,400 (1.8%) were called active. The inconclusive results got no clear call from the source; some entries with a clear call stand among them for comparison. The call rests on the fitted dose curve; tested in HEK293 cells. Potencies beside an inconclusive call are fits to weak or partial responses and may not hold up.

Test: qHTS for inhibitors of binding or entry into cells for Marburg Virus
Details: Marburg virus pseudotyped entry inhibition, cell reporter; series mostly up to 37.8 µM
Potency means the concentration at half of the fitted maximal effect.

Compound	Potency
C=CCn1c(CNC(=O)c2ccco2)nnc1SCC(=O)c1ccc(OC)cc1	inconclusive: 6.31 µM [inhibitor, single point]
COc1cccc(CNC(=O)Cn2ncc3c(=O)oc4ccccc4c32)c1	inconclusive: 6.31 µM [inhibitor, full curve, poor fit]
COC(=O)c1ccc2nc(-c3cccc(N)c3)cn2c1	inconclusive: 2 µM [inhibitor, full curve, poor fit]
O=C(CSc1nc2ccccc2c(=O)n1CCCN1CCOCC1)Nc1ccccc1OC(F)F	inconclusive: 25.1 µM [inhibitor, single point]
CC(C)(C)C(=O)NCCc1nc2ccccc2n1CCCCOc1ccccc1	inconclusive: 12.6 µM [inhibitor, partial curve, poor fit]
Cc1ccc(NC2=C(Cl)C(=O)c3ccccc3C2=O)cc1	inconclusive: 7.08 µM [inhibitor, full curve, poor fit]
O=C(O)c1ccccc1SCc1csc(-c2ccccc2)n1	inconclusive: 8.91 µM [activator, single point]
CC1=CC2=NC(=O)/C(=C\c3cc(C)n(-c4ccc(F)cc4)c3C)C(=N)N2O1	inactive
COc1ccc(/C=C/C(=O)Nc2ccc(C34CC5CC(CC(O)(C5)C3)C4)cc2)cc1OC	active: 6.51 µM
Cc1ccc(N(CC(=O)N2CCN(c3ccc(F)cc3)CC2)S(=O)(=O)c2c(C)noc2C)cc1	inconclusive: 8.91 µM [inhibitor, partial curve, poor fit]
O=C(NCc1ccccn1)c1n[nH]c2ccccc12	inactive
CC1CCN(S(=O)(=O)c2ccc(NC(=O)CNC3CCCCC3)cc2)CC1	inconclusive: 17.8 µM [inhibitor, single point]
O=C(Cc1ccc(F)cc1)N1CCN(c2ccc(F)cc2)CC1	inactive
Clc1ccc(-c2ccc(C=Nc3ccc(N4CCOCC4)cc3)o2)c(Cl)c1	inactive
COc1ccc(NC(=O)CCC(=O)N/N=C/c2ccc([N+](=O)[O-])s2)cc1	inconclusive: 35.5 µM [inhibitor, single point]
CCN(CC)c1ccc(N=Cc2ccc(N(CC)CC)cc2O)cc1	inactive
Cc1nc(SCC(=O)N(C)Cc2ccco2)c2c(C)c(C)sc2n1	active: 7.3 µM
Cc1cc(C)c(S(=O)(=O)Nc2ccc(C(N)=O)cc2)c(C)c1	inactive
CC(C)CC(=O)NC1(C(F)(F)F)C(=O)Nc2c1c(=O)n(C)c(=O)n2C (centres undefined)	inconclusive: 0.355 µM [activator, partial curve, poor fit]
Cc1ccccc1-c1oc(C)c(C)[n+]1[O-]	inactive
CCCCN(C(=O)CSCc1ccc(C)cc1)c1c(N)n(CCC)c(=O)[nH]c1=O	inconclusive: 1.26 µM [activator, single point]
COc1ccc(-n2nc3c(N4CCC(C(=O)NCc5ccccc5C)CC4)nnc(C)c3c2C)cc1	inconclusive: 4.47 µM [inhibitor, partial curve, poor fit]
CCNCC(=O)N1c2ccccc2CCc2ccc(NC(=O)OCC)cc21	inconclusive: 35.5 µM [inhibitor, single point]

Retrieved one by one from above:
Compound	Potency
Cc1ccccc1-c1oc(C)c(C)[n+]1[O-]	inactive
O=C(NCc1ccccn1)c1n[nH]c2ccccc12	inactive

Continued:

Compound	Potency
COc1ccc(NC(=S)N(Cc2cccnc2)Cc2cc3cc(OC)c(OC)cc3[nH]c2=O)cc1	inconclusive: 0.082 µM [inhibitor, partial curve, poor fit]
Cc1ccc(C(=O)NCCCN2CCOCC2)cc1N1CCCC1=O	inactive
CN(C(=O)c1cccnc1)c1nnc(-c2ccccn2)s1	inconclusive: 28.2 µM [activator, partial curve, poor fit]
CCN1C(=O)C2(C(C(=O)c3ccc(C)o3)=C(O)C(=O)N2CCCN2CCOCC2)c2ccccc21 (centres undefined)	inactive
Cc1ccc(CN(C)C(=O)COC(=O)CSc2ccc([N+](=O)[O-])cc2)cc1	inconclusive: 0.282 µM [inhibitor, partial curve, poor fit]
Nc1ccccc1-c1nc2ccccc2s1	inconclusive: 3.98 µM [activator, partial curve]
CCOC(=O)c1sc(NC(=O)CSc2nnnn2-c2ccc(C)c(C)c2)nc1C	inactive
CCOc1ccc(C2c3c(-c4cc(C)ccc4O)n[nH]c3C(=O)N2Cc2cccnc2)cc1OCC (centres undefined)	inconclusive: 5.62 µM [inhibitor, single point]
O=C(NC1CCCCCC1)c1cc2ccccc2oc1=O	inconclusive: 35.5 µM [inhibitor, single point]
O=C(c1cnc(Cl)c(Cl)c1)N1CCC(Cc2ccccc2)CC1	inconclusive: 35.5 µM [inhibitor, single point]
CC(C)C(=O)Nc1cccc(C(=O)Nc2ccc(S(=O)(=O)N3CCOCC3)cc2)c1	inactive
COc1ccc(CNC(=O)CCCOc2cc(=O)n(C)c3ccccc23)cc1	inactive
O=c1c2ccccc2nc(-c2ccc(Cl)cc2Cl)n1CCCn1ccnc1	inconclusive: 0.282 µM [activator, full curve, poor fit]
Cc1cc(C)c2c(c1)c1nnc(SCCN3CCCCC3)nc1n2C	inconclusive: 20 µM [inhibitor, partial curve, poor fit]
Cn1ncc(SCc2ccccc2)c(Cl)c1=O	inconclusive: 3.16 µM [activator, partial curve, poor fit]
COc1cccc(Nc2nnc(SCN3C(=O)c4ccccc4C3=O)s2)c1	inactive
O=C(CC1NC(=O)NC1=O)Nc1ccccc1 (centres undefined)	inconclusive: 3.66 µM [activator, single point]
Cc1cc(C)n(-c2nnc(C)n2/N=C/c2ccco2)n1	inconclusive: 0.13 µM [inhibitor, full curve, poor fit]
O=C1NCCN(Cc2ccc(Cl)c(F)c2)C1CC(=O)N1CCc2ccccc2C1 (centres undefined)	inactive
CC1CCCCN1C(=O)N[C@@H](Cc1ccccc1)C(=O)O (some centres undefined)	inactive
O=C1c2cccc3cccc(c23)C(=O)N1CC1CCN(CC(O)COCc2ccc3c(c2)OCO3)CC1 (centres undefined)	inconclusive: 6.51 µM [activator, single point]
CCN(CC)P(=O)(Nc1ccccc1Br)c1ccc(N(C)C)cc1NC(=O)c1ccco1 (centres undefined)	inconclusive: 6.31 µM [inhibitor, single point]
O=C(O)CC(CC(=O)Nc1ccc(-n2ccc(C(F)(F)F)n2)cc1)c1ccccc1 (centres undefined)	inactive

Compound	Potency
CSc1ccccc1NC(=O)CCS(=O)(=O)c1nc(-c2ccc3c(c2)OCO3)cc(C(F)(F)F)n1	inconclusive: 1.41 µM [inhibitor, full curve]
COc1ccc(OCCCC(=O)OCC(=O)Nc2ccc(Cl)cn2)cc1	inconclusive: 20 µM [activator, partial curve, poor fit]
CCOc1c(Cl)cc(CNc2ccc(N3CCCC3)cc2)cc1OC	inconclusive: 35.5 µM [inhibitor, single point]
O=C(c1cccc(S(=O)(=O)N2CCc3ccccc32)c1)N1CCN(c2ccccn2)CC1	inconclusive: 2.82 µM [inhibitor, partial curve, poor fit]
CC(=O)c1ccc(S(=O)(=O)N(C)CC(=O)NCc2ccco2)cc1	inconclusive: 35.5 µM [activator, single point]
COC(=O)C(Cc1ccc(O)cc1)NC(=O)CCc1nc2ccccc2s1 (centres undefined)	inconclusive: 2.24 µM [inhibitor, partial curve, poor fit]
O=C(CN(C(=O)CCC(=O)Nc1ccccn1)C1CCCC1)NCc1ccccc1	inactive
Cc1cc(C(=O)Nc2sc3c(c2C#N)CCC(C)C3)cs1 (centres undefined)	inconclusive: 0.326 µM [activator, partial curve, poor fit]
CC(=O)Nc1cc(NC(C)=O)cc(C(=O)N2CCCC3CCCCC32)c1 (centres undefined)	inactive
NNC(=O)c1ccc(Cl)cc1Cl	inactive
CCN(CC)C(=N)N1c2ccccc2CCC1C (centres undefined)	inactive
COc1ccc(C(c2sc3ncnn3c2O)N2CCN(c3ccccc3F)CC2)cc1OC (centres undefined)	inactive
CCOC(=O)C1(CC2CCCCO2)CCN(Cc2nc(C(C)C)cs2)CC1 (centres undefined)	inconclusive: 35.5 µM [inhibitor, single point]
O=C(NCCc1c[nH]c2ccccc12)c1ccc(F)cc1F	inconclusive: 11.2 µM [activator, partial curve, poor fit]
Cc1ccc(C(=O)NCCSC2CCCCC2)cc1S(=O)(=O)Nc1ccccc1	inconclusive: 3.66 µM [inhibitor, partial curve, poor fit]
COc1cc(NC(=O)C2=C(N3CCOCC3)/C(=C\c3ccc(N(C)C)cc3)CCC2)cc(OC)c1OC	inconclusive: 11.2 µM [inhibitor, partial curve, poor fit]
COc1ccccc1N1CCN(C(=O)CN2C(=O)COc3ccc(S(=O)(=O)N4CCOCC4)cc32)CC1	inactive
CC1=C/C(=N\S(=O)(=O)c2ccccc2)C(C(C)C)=CC1=O	inconclusive: 3.55 µM [inhibitor, partial curve, poor fit]
CCN(CC)C(=O)c1c(-c2ccccc2)c(-c2ccccc2)nn(CC)c1=O	inconclusive: 2.51 µM [inhibitor, full curve]
COc1cccc(OC)c1C(=O)Oc1ccc2c(c1)O/C(=C\c1ccncc1)C2=O	active: 7.08 µM
CC(=O)NC(Cc1ccccc1)Cc1ccccc1	inconclusive: 35.5 µM [activator, single point]
N#C/C(=C\c1ccc(-c2nc3ccccc3s2)o1)C(N)=O	inactive
O=C(Nc1ccc(NC(=S)NC(=O)C(c2ccccc2)c2ccccc2)cc1)c1ccccc1	inconclusive: 10 µM [inhibitor, single point]

Among those listed so far, these contain an aryl methoxy group:
Compound	Potency
C=CCn1c(CNC(=O)c2ccco2)nnc1SCC(=O)c1ccc(OC)cc1	inconclusive: 6.31 µM [inhibitor, single point]
COc1cccc(CNC(=O)Cn2ncc3c(=O)oc4ccccc4c32)c1	inconclusive: 6.31 µM [inhibitor, full curve, poor fit]
COc1ccc(/C=C/C(=O)Nc2ccc(C34CC5CC(CC(O)(C5)C3)C4)cc2)cc1OC	active: 6.51 µM
COc1ccc(NC(=O)CCC(=O)N/N=C/c2ccc([N+](=O)[O-])s2)cc1	inconclusive: 35.5 µM [inhibitor, single point]
COc1ccc(-n2nc3c(N4CCC(C(=O)NCc5ccccc5C)CC4)nnc(C)c3c2C)cc1	inconclusive: 4.47 µM [inhibitor, partial curve, poor fit]
COc1ccc(NC(=S)N(Cc2cccnc2)Cc2cc3cc(OC)c(OC)cc3[nH]c2=O)cc1	inconclusive: 0.082 µM [inhibitor, partial curve, poor fit]
COc1ccc(CNC(=O)CCCOc2cc(=O)n(C)c3ccccc23)cc1	inactive
COc1cccc(Nc2nnc(SCN3C(=O)c4ccccc4C3=O)s2)c1	inactive
COc1ccc(OCCCC(=O)OCC(=O)Nc2ccc(Cl)cn2)cc1	inconclusive: 20 µM [activator, partial curve, poor fit]
CCOc1c(Cl)cc(CNc2ccc(N3CCCC3)cc2)cc1OC	inconclusive: 35.5 µM [inhibitor, single point]
COc1ccc(C(c2sc3ncnn3c2O)N2CCN(c3ccccc3F)CC2)cc1OC (centres undefined)	inactive
COc1cc(NC(=O)C2=C(N3CCOCC3)/C(=C\c3ccc(N(C)C)cc3)CCC2)cc(OC)c1OC	inconclusive: 11.2 µM [inhibitor, partial curve, poor fit]
COc1ccccc1N1CCN(C(=O)CN2C(=O)COc3ccc(S(=O)(=O)N4CCOCC4)cc32)CC1	inactive
COc1cccc(OC)c1C(=O)Oc1ccc2c(c1)O/C(=C\c1ccncc1)C2=O	active: 7.08 µM
